In US12331019B2, “Modified amino acid derivatives for the treatment of neurological diseases and selected psychiatric disorders” (Uniwersytet Jagiellonski, priority 2019, dated 2025):

System: Swiss albino mice (CD-1)
Assay: maximal electroshock seizure test (MES)
Assay type: in vivo, mouse
Conditions: i.p., CD-1 mice

Row | SMILES | PI TD50/ED50 (MES)
1 | CCCC(CCC)C(=O)O [VPA, valproic acid, reference compound] | 1.7 (MES)
2 | C[C@H](C(=O)NCc1ccccc1F)N1C(=O)CCC1=O [Compound 2, (2R)-2-(2,5-dioxopyrrolidin-1-yl)-N-(2-fluorobenzyl)propanamide] | 9.0 (MES)
